Results deposited as PubChem BioAssay AID1508597 (Cure First, 2020).
Aim: 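Knock-downs altering ovarian cancer cell survival with or without PARP inhibitor rucaparib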 (primary screen). Cell system: human ovarian carcinoma lines grown from tumours: OCI-P5x (papillary serous) and OCI-C5x (clear cell). Reagents: siRNA pool against human genes, 1.25 pmol siRNA per well. Duration: 72 h or 96 h, depending on the cell culture. Challenge: rucaparib 20 µM (about IC30) or vehicle, present until read-out. Rucaparib or vehicle: Rucaparib. Cell line: OCI-C5x (clear cell). Measurement: 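ATP luminescence measured at 72 or 96 h according to the culture, then normalised and expressed as percent viability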. Scale: viability, normalised: higher = more viable cells remaining. Hit rule: 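a well counts as a hit if its normalised viability is under 80 percent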. Calls: active = viability under 80%; inactive = viability 80% or more.
This is an unselected part of the about 2,100 reagents, under one of the conditions tested. 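Calls flag viability under 80% in either arm, not effects specific to rucaparib; the reference for percent is not stated.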 Reagents against one gene are numbered here. No sequences are given here. Not given: the 100% reference.

| target gene | reagent no. | technical replicate | viability, normalised (%) | call |
| --- | --- | --- | --- | --- |
| SMAD4 (SMAD family member 4) | 1 | 1 | 33.6 | active |
| SMAD4 (SMAD family member 4) | 1 | 2 | 26.9 | active |
| SMAD4 (SMAD family member 4) | 1 | 3 | 40.1 | active |
| ZFAT (zinc finger and AT-hook domain containing) | 1 | 1 | 25.1 | active |
| ZFAT (zinc finger and AT-hook domain containing) | 1 | 2 | 25.3 | active |
| ZFAT (zinc finger and AT-hook domain containing) | 1 | 3 | 25.8 | active |
| TESK1 (testis associated actin remodelling kinase 1) | 1 | 1 | 44.2 | active |
| TESK1 (testis associated actin remodelling kinase 1) | 1 | 2 | 53.8 | active |
| TESK1 (testis associated actin remodelling kinase 1) | 1 | 3 | 53.5 | active |
| NLK (nemo like kinase) | 1 | 1 | 64.7 | active |
| NLK (nemo like kinase) | 1 | 2 | 56.7 | active |
| NLK (nemo like kinase) | 1 | 3 | 45.6 | active |
| RNF2 (ring finger protein 2) | 1 | 1 | 42.1 | active |
| RNF2 (ring finger protein 2) | 1 | 2 | 36.2 | active |
| RNF2 (ring finger protein 2) | 1 | 3 | 38.7 | active |
| ABRAXAS1 (abraxas 1, BRCA1 A complex subunit) | 1 | 1 | 64 | active |
| ABRAXAS1 (abraxas 1, BRCA1 A complex subunit) | 1 | 2 | 50.7 | active |
| ABRAXAS1 (abraxas 1, BRCA1 A complex subunit) | 1 | 3 | 55.9 | active |
| ABRAXAS1 (abraxas 1, BRCA1 A complex subunit) | 2 | 1 | 42 | active |
| ABRAXAS1 (abraxas 1, BRCA1 A complex subunit) | 2 | 2 | 48.3 | active |
| ABRAXAS1 (abraxas 1, BRCA1 A complex subunit) | 2 | 3 | 44.2 | active |

Part of the list above, set out differently:
target gene | reagent no. | technical replicate | viability, normalised (%) | call
TESK1 (testis associated actin remodelling kinase 1) | 1 | 1 | 44.2 | active
TESK1 (testis associated actin remodelling kinase 1) | 1 | 2 | 53.8 | active
TESK1 (testis associated actin remodelling kinase 1) | 1 | 3 | 53.5 | active
NLK (nemo like kinase) | 1 | 1 | 64.7 | active
NLK (nemo like kinase) | 1 | 2 | 56.7 | active

Further results follow:
| target gene | reagent no. | technical replicate | viability, normalised (%) | call |
| --- | --- | --- | --- | --- |
| UHRF2 (ubiquitin like with PHD and ring finger domains 2) | 1 | 1 | 85.1 | inactive |
| UHRF2 (ubiquitin like with PHD and ring finger domains 2) | 1 | 2 | 65 | active |
| UHRF2 (ubiquitin like with PHD and ring finger domains 2) | 1 | 3 | 43.5 | active |
| RAB32 (RAB32, member RAS oncogene family) | 1 | 1 | 71.8 | active |
| RAB32 (RAB32, member RAS oncogene family) | 1 | 2 | 50.3 | active |
| RAB32 (RAB32, member RAS oncogene family) | 1 | 3 | 43.2 | active |
| DNAJC1 (DnaJ heat shock protein family (Hsp40) member C1) | 1 | 1 | 57.1 | active |
| DNAJC1 (DnaJ heat shock protein family (Hsp40) member C1) | 1 | 2 | 41.3 | active |
| DNAJC1 (DnaJ heat shock protein family (Hsp40) member C1) | 1 | 3 | 53.7 | active |
| EEF2K (eukaryotic elongation factor 2 kinase) | 1 | 1 | 45.4 | active |
| EEF2K (eukaryotic elongation factor 2 kinase) | 1 | 2 | 64 | active |
| EEF2K (eukaryotic elongation factor 2 kinase) | 1 | 3 | 74 | active |
| UCK1 (uridine-cytidine kinase 1) | 1 | 1 | 45.2 | active |
| UCK1 (uridine-cytidine kinase 1) | 1 | 2 | 69.7 | active |
| UCK1 (uridine-cytidine kinase 1) | 1 | 3 | 47.9 | active |
| BRWD3 (bromodomain and WD repeat domain containing 3) | 1 | 1 | 69.2 | active |
| BRWD3 (bromodomain and WD repeat domain containing 3) | 1 | 2 | 53 | active |
| BRWD3 (bromodomain and WD repeat domain containing 3) | 1 | 3 | 46.1 | active |
